Experimental data as given in paper PMC9108620.

Protein sequences, listed by entry. Tags and fused reporters are not part of them. Lines headed by an entry give the natural chain unless they say otherwise; changes in a name come on top.
UniProt Q9NYA1: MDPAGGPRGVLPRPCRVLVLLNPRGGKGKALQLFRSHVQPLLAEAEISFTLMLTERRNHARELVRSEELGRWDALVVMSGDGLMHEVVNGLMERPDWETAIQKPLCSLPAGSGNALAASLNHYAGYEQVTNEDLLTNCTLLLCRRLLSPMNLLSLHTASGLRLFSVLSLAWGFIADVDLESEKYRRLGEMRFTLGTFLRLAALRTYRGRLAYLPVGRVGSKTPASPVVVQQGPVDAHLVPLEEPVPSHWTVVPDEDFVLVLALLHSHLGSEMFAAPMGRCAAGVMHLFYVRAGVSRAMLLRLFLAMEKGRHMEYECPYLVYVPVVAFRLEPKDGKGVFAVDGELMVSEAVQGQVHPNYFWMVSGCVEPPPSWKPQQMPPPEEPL
UniProt Q99816: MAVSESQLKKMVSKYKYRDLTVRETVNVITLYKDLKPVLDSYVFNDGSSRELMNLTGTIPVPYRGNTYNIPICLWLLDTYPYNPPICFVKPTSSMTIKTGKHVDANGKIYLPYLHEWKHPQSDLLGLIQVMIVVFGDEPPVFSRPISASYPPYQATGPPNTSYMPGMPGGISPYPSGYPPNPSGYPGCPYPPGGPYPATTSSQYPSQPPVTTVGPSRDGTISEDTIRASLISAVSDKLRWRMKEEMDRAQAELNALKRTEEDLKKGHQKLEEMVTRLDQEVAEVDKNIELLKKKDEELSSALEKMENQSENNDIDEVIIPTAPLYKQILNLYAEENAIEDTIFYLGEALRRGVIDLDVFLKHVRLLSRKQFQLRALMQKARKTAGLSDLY

What was measured:
Assay in all cases: pull-down; GFP-Trap pulldown from HeyA8 cells transfected with wild-type or PTAP-mutated SPHK1 plasmids; TSG101 detected by western blotting
[1] = biological target: GFP-tagged SPHK1, PTAP motif mutated to ATAP (UniProt Q9NYA1)
[2] = biological target: GFP-tagged SPHK1, PTAP motif mutated to PTAA (UniProt Q9NYA1)
[3] = biological target: GFP-tagged SPHK1, PTAP motif mutated to PAAP (UniProt Q9NYA1)

- binding [1]: no binding
- binding [2]: no binding
- binding [3]: binds
Substance: tumor susceptibility gene 101 protein (TSG101), endogenous in HeyA8 cells (from UniProt Q99816 1-390)

Results are given in words; binding and its absence hold for the method and conditions named. In cells and extracts the contact can be indirect. For part of these data: Binding can be weak; no strength is given.
